Patent publication US12280069B2, “Methods of using human milk oligosaccharides for improving airway respiratory health” (priority 2010, dated 2025)
Some entries share one result that the patent states for a list of compounds. At least one compound was matched to its structure with a doubt left.

Tested on: H1N1 influenza virus
Type: cell-based
Settings: 10 mg/mL; MDCK cells; FIG. 1

## CC(=O)N[C@H]1[C@H]([C@H](O)[C@H](O)CO)O[C@@](O[C@H]2[C@@H](O)[C@@H](CO)O[C@@H](O[C@H]3[C@H](O)[C@@H](O)C(O)O[C@@H]3CO)[C@@H]2O)(C(=O)O)C[C@@H]1O (stereo partly shown) [3′SL, 3′-sialyllactose]
  inhibition of virus infectivity: greater than 90%
